PubChem BioAssay AID504786 – Drosophila RNAi Screening Center | 2011

Aim: 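Fly genes required for HIF-dependent transcription when hypoxia is mimicked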 (primary screen)
Cell system: Drosophila S2 cells with a stable HIF luciferase reporter
Knock-down reagent: long dsRNA against Drosophila genes, about 0.2 µg dsRNA per well of a 384-well plate
Time to read-out: three days of knock-down, then 20 h of DFO before reading
Treatment: desferrioxamine (DFO) at 100 µM, an iron chelator that mimics hypoxia, for 20 h
Measured: 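HIF reporter luminescence in cells given 100 µM DFO for 20 h, using the mouse ldh-a hypoxia-response element, scored as per-plate z-scores; higher means greater loss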
Scale: z-score: higher = stronger loss of HIF reporter signal
In all, the deposit lists about 21,000 reagents; this is a random part of those that have a named target and a result. 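Primary screen; positive scores mean lost reporter signal, so the sign may be inverted from the usual convention.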 Names joined by + are all predicted targets of the reagent. Not all columns of the deposit are shown. No sequences are given here.

gene | amplicon | z-score, replicate 1
CG3306 | DRSC10357 | -0.1
CG32305 | DRSC08614 | -0.2
CG13609 | DRSC14612 | -0.5
CG14434 | DRSC17927 | -0.3
CG31717 | DRSC01121 | -0.3
CG34444 | DRSC06435 | -0.4
CG3880 | DRSC04428 | -0.2
Sec6 (Secretory 6) | DRSC06932 | -0.2
CG12929 | DRSC06242 | -0.3
CG7295 | DRSC00699 | -0.2
CG13699 | DRSC10048 | -0.2
Mst84Dd (Male-specific RNA 84Dd) | DRSC12600 | -0.2
btz (barentsz) | DRSC14566 | -0.1
CG7879 | DRSC08600 | -0.2
CG11257 | DRSC06068 | -0.4
shep (alan shepard) | DRSC08748 | -0.7
shep (alan shepard) | DRSC09765 | -0.5
shep (alan shepard) | DRSC09771 | -0.3
Mtpbeta (Mitochondrial trifunctional protein beta subunit) | DRSC04663 | -0.3
UQCR-6.4 (Ubiquinol-cytochrome c reductase 6.4 kDa subunit) | DRSC06454 | -0.1
PQBP1 (Poly-glutamine tract binding protein 1) | DRSC14393 | 0.1
Spt6 | DRSC18836 | 4.8
Uros1 (Uroporphyrinogen III synthase 1) | DRSC18191 | -0.3
CG18268 + CG3014 | DRSC15319 | -0.2
dbr (debra) | DRSC00274 | -0.1
CG13766 | DRSC02271 | -0.3
Ir94f (Ionotropic receptor 94f) | DRSC13621 | -0.1
Cyp6w1 (Cytochrome P450 6w1) | DRSC04909 | -0.2
MCTS1 (Malignant T cell amplified sequence 1) | DRSC18393 | -0.2
Iyd (Iodotyrosine deiodinase) | DRSC10614 | -0.1
Iyd (Iodotyrosine deiodinase) | DRSC10615 | -0.3
cort (cortex) | DRSC02148 | 0.5
GCS1 (Glucosidase 1) | DRSC19744 | -0.2
roq (roquin) | DRSC10227 | -0.2
CG15468 | DRSC18051 | -0.3
Ttc1 (Tetratricopeptide repeat domain 1) | DRSC15016 | -0.2
CG15721 | DRSC19688 | -0.3
P5CS (Delta[1]-pyrroline-5-carboxylate synthase) | DRSC11831 | -0.3
P5CS (Delta[1]-pyrroline-5-carboxylate synthase) | DRSC11832 | -0.3
CG34269 | DRSC07884 | -0.2
EMC5 (ER membrane protein complex subunit 5) | DRSC02469 | -0.1
CG31806 | DRSC02787 | -0.1
CG10802 | DRSC17762 | -0.2
Obp57e (Odorant-binding protein 57e) | DRSC05891 | 0.3
ppan (peter pan) | DRSC17030 | 1.9
CG3815 | DRSC18324 | 0
CG12983 | DRSC11692 | -0.3
Cpr65Eb (Cuticular protein 65Eb) | DRSC11026 | -0.3
CG32568 | DRSC19913 | -0.4
PolQ (DNA polymerase theta) | DRSC17006 | -0.3
fz2 (frizzled 2) | DRSC09595 | 0.3
fz2 (frizzled 2) | DRSC10087 | -0.4
fz2 (frizzled 2) | DRSC11349 | -0.3
CG8155 | DRSC07084 | -0.3
WRNexo (WRN exonuclease) | DRSC16278 | -0.2
eEF1alpha1 (eukaryotic translation elongation factor 1 alpha 1) | DRSC07421 | 4.3
